According to patent publication US20080131434A1 (ONCOMED PHARMACEUTICALS, published 2008):
These are yes or no findings as the source states them, for the method shown. Some results given as binding are weak or reduced against the parent protein; the word gives no strength.

By UniProt entry, the sequences of proteins in these tests, tags left out. Residues count along the entry.
NOTCH1 (construct used in the assay not stated) (P46531, residues 19-220): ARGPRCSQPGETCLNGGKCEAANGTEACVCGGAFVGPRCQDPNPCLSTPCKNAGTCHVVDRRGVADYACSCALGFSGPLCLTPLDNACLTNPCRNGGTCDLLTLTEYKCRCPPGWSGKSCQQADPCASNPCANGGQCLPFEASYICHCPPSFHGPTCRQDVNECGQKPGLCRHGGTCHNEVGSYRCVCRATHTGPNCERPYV
NOTCH1 EGF 1-4 Fc fusion protein (P46531, residues 19-176): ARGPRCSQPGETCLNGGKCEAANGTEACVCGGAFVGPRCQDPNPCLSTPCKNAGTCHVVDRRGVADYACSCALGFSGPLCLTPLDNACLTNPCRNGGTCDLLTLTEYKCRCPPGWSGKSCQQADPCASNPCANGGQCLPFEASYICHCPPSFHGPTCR
NOTCH1 EGF 4-5 Fc fusion protein (P46531, residues 140-220): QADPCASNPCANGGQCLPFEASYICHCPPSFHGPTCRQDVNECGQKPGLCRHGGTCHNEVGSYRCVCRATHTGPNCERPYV

Assays:
[1] = target: NOTCH1 EGF 1-4 Fc fusion protein (human) (UniProt P46531); assay: Western blot, SDS-PAGE of Fc fusion proteins
[2] = target: NOTCH1 EGF 4-5 Fc fusion protein (human) (UniProt P46531); assay: Western blot, SDS-PAGE of Fc fusion proteins
[3] = target: NOTCH1 (construct used in the assay not stated) (human) (UniProt P46531); assay: Western blot of NOTCH1 fragment Fc fusions, non-reducing SDS-PAGE

Measured: binding

B1: anti-NOTCH1 monoclonal antibody 13M57 (antibody, mouse IgG1, kappa, V domains shown)
VH: EVNLVESGGDLVQPGGSLRLSCAASGFTFSSYTMSWVRQTPEKRLEWVAYIDYGGDFTSYSDAIRGRFTISRDNAKNTLYLQMSSLKSEDTAIYYCSRRRYDAMDYWGQGTSVIVSS
VL: DIQMTQSTSSLSASLGDRVTVSCSASQAISNYLNWYQQKPDGTLKLLIYYTTNLHSGVPSRFSGSGSGTDYSLTISNLEPEDIATYYCQQYSKFPWTFGGGTKLEIKR
notes: Murine hybridoma antibody raised against NOTCH1 EGF repeats 1-5; Conjugated to Alexa Fluor 647 for some FACS work; also called 13M30
binds: all assays above
